Assay results reported in doi:10.1101/495762 (bioRxiv, 2018).
No constants are given. Whether binding was seen depends on the method and setting. Binding seen in cells or lysates may run through a third protein. Some entries that bind do so weakly or less than the wild type. Sequences can lack the tags named with a protein.

How the values were obtained:
[1] = molecular target: T1, acetylated Smc3(E570C) (S. cerevisiae) (UniProt P47037); assay: cross-linking
T1 sequence (chain, acetylated, residues not printed): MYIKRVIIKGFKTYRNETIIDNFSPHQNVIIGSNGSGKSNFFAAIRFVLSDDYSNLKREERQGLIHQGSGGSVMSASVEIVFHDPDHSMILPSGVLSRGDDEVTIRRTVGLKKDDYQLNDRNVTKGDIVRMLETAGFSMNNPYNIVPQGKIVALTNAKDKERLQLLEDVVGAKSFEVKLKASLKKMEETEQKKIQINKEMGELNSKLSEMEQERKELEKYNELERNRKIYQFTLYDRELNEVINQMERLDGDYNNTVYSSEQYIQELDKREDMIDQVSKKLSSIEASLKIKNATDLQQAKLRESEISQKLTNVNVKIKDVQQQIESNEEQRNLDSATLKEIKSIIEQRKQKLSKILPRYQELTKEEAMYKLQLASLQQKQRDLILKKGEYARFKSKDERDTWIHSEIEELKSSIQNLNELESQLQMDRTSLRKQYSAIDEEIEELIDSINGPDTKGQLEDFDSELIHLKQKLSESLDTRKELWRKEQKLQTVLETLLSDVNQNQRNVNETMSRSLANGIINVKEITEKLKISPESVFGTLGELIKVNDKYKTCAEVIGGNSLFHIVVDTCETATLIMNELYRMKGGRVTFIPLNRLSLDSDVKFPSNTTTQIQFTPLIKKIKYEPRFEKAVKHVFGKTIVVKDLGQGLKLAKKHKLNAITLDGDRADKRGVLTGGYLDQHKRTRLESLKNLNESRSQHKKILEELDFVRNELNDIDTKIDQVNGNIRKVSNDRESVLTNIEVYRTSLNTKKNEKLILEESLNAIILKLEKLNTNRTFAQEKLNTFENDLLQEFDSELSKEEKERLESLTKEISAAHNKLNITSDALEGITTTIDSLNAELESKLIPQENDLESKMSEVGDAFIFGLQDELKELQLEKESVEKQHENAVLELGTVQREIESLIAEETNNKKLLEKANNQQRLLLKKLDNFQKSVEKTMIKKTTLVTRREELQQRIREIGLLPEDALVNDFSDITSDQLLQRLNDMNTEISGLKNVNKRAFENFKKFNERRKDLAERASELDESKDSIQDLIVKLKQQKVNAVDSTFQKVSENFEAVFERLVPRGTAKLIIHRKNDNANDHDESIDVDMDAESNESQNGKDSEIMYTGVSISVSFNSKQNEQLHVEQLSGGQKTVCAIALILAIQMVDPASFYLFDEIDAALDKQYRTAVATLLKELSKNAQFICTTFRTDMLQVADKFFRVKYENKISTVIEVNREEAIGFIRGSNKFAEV

[2] = molecular target: T2, Smc3(E570C) (S. cerevisiae) (UniProt P47037); assay: cross-linking
T2 sequence: T1 sequence (chain, acetylated, residues not printed)

B1: Smc1(K639C)-HA (protein, UniProt P32908 1-1225)
chain: MGRLVGLELSNFKSYRGVTKVGFGESNFTSIIGPNGSGKSNMMDAISFVLGVRSNHLRSNILKDLIYRGVLNDENSDDYDNEGAASSNPQSAYVKAFYQKGNKLVELMRIISRNGDTSYKIDGKTVSYKDYSIFLENENILIKAKNFLVFQGDVEQIAAQSPVELSRMFEEVSGSIQYKKEYEELKEKIEKLSKSATESIKNRRRIHGELKTYKEGINKNEEYRKQLDKKNELQKFQALWQLYHLEQQKEELTDKLSALNSEISSLKGKINNEMKSLQRSKSSFVKESAVISKQKSKLDYIFKDKEKLVSDLRLIKVPQQAAGKRISHIEKRIESLQKDLQRQKTYVERFETQLKVVTRSKEAFEEEIKQSARNYDKFKLNENDLKTYNCLHEKYLTEGGSILEEKIAVLNNDKREIQEELERFNKRADISKRRITEELSITGEKLDTQLNDLRVSLNEKNALHTERLHELKKLQSDIESANNQEYDLNFKLRETLVKIDDLSANQRETMKERKLRENIAMLKRFFPGVKGLVHDLCHPKKEKYGLAVSTILGKNFDSVIVENLTVAQECIAFLKKQRAGTASFIPLDTIETELPTLSLPDSQDYILSINAIDYEPEYEKAMQYVCGDSIICNTLNIACDLKWKKGIRGKLVTIEGALIHKAGLMTGGISGDANNRWDKEEYQSLMSLKDKLLIQIDELSNGQRSNSIRAREVENSVSLLNSDIANLRTQVTQQKRSLDENRLEIKYHNDLIEKEIQPKITELKKKLDDLENTKDNLVKEKEALQNNIFKEFTSKIGFTIKEYENHSGELMRQQSKELQQLQKQILTVENKLQFETDRLSTTQRRYEKAQKDLENAQVEMKSLEEQEYAIEMKIGSIESKLEEHKNHLDELQKKFVTKQSELNSSEDILEDMNSNLQVLKRERDGIKEDIEKFDLERVTALKNCKISNINIPISSETTIDDLPISSTDNEAITISNSIDINYKGLPKKYKENNTDSARKELEQKIHEVEEILNELQPNARALERYDEAEGRFEVINNETEQLKAEEKKILNQFLKIKKKRKELFEKTFDYVSDHLDAIYRELTKNPNSNVELAGGNASLTIEDEDEPFNAGIKYHATPPLKRFKDMEYLSGGEKTVAALALLFAINSYQPSPFFVLDEVDAALDITNVQRIAAYIRRHRNPDLQFIVISLKNTMFEKSDALVGVYRQQQENSSKIITLDLSNYAE
**Q.** How did the binding [1] turn out when B1 was run?
**A.** binds

**Q.** And the binding [2]?
**A.** binds
